In article PMC8027031:
No constants are given. Whether binding was seen depends on the method and setting. Binding seen in cells or lysates may run through a third protein. Some entries that bind do so weakly or less than the wild type.

By UniProt entry, the sequences of proteins in these tests, tags left out.
UniProt Q13951: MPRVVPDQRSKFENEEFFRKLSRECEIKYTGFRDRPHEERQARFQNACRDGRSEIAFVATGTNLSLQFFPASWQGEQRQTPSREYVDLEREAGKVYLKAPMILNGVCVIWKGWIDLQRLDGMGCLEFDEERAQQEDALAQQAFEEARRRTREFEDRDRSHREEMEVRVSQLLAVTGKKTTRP

Target: HA-CBFβ (UniProt Q13951)
Assay: co-IP; HEK293 cells transfected with Flag-RUNX3, Myc-importin-α1 or Myc-importin-α7, with or without HA-CBFβ and pEGFP-G9a; the precipitating antibody is not named in the legend

- binding: binds
Substance: Myc-importin-α7 (from UniProt O60684 1-536)
